# Data reported in patent US20220016063A1, “COMPOSITIONS THAT ENHANCE IRON ABSORPTION AND METHODS OF USE THEREOF” (UNIVERSITY OF FLORDIA RESEARCH FOUNDATION, INCORPORATED, priority 2018, published 2022).
# Some results were stated once for a whole list of compounds, not compound by compound.
# Test system: DMT1
# Assay: Ligated duodenal loop studies, DMT1 Western blot of BBMV
# Design: species or system Swiss-Webster mice
# Details: single AA formulation pH 6.5 in duodenal loop, 45 min 37 °C; relative to control (expression set to 1)
# Protocol: Blind loop studies were conducted on 8-10-week-old male Swiss-Webster mice, as they are a commonly used outbred strain. Males were selected for initial screening purposes, but experiments will be repeated in female mice. Mice were sacrificed and duodenal segments (approximately […]) were isolated and flushed with Ringer's buffer. […] After incubation, the luminal liquid was released. […] A standard protocol for isolating BBM protein was performed for Western blot analysis (described below).
# Isolation of Brush-Border Membrane Vesicles (BBMV): A light scrape of the duodenal mucosal was placed in 9.9 mL ice-cold lysis buffer with 0.1 mL Halt Protease Inhibitor Cocktail, EDTA-free 100×. Samples were homogenized on ice using an IKA T25 Ultra Turrax device for 2 min. Following homogenization, 500 μL 1 M MgCl2 was added and the sample was rotated at 4° C. for 10 minutes. Samples were then centrifuged at 10,000 rpm for 25 min using a JA-12 rotor in a Beckman-Coulter ultracentrifuge. The supernatant was transferred to new round-bottom tubes and centrifuged again at 19,000 rpm for 40 minutes using a JA-17 rotor. […]
# Western Blot: Proteins in gels were transferred to PVDF membranes at 60 V for two hours. […] Blots were subsequently imaged and protein band signals were quantified with a Licor Odyssey CLx immunofluorescent instrument. […]
compound,measurement,value
N[C@@H](CCC(=O)O)C(=O)O [glutamic acid],relative DMT1 protein expression on the BBM,≥ 1.4
